Data on 42 sequences can be found in PMC7819943, “Rice protein-binding microarrays: a tool to detect cis-acting elements near promoter regions in rice”.

By UniProt entry, the sequences of proteins in these tests, tags left out.
UniProt Q0JBA9, entry or part of it: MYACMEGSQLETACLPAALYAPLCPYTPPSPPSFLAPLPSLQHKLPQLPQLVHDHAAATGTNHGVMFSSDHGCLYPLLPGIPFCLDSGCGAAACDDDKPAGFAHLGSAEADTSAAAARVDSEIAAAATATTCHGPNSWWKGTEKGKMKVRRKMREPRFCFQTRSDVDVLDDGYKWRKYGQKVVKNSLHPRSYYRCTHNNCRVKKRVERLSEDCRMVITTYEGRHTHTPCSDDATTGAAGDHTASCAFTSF

Some of the results follow.

This experiment deals with OsWRKY34 (Oryza sativa, UniProt Q0JBA9 1-250). Briefly: protein-binding microarray (RPBM); PBS, 2% BSA, 51.3 ng/ul salmon testes DNA, 50 uM zinc acetate, 200 nM TF, 25 C, 1 h; high values mean tight binding. Particulars: protein: recombinant; tags: N-terminal polyhistidine and DsRed monomer fusion (pET32a); label: CyDye5-dUTP incorporated in the synthesized complementary strand; 3' TTTTT single-stranded linker to array surface; dsDNA, one strand shown. The method in brief:
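Ni–NTA purification followed expression in E. coli BL21-CodonPlus of transcription factors fused N-terminally to a polyhistidine tag and DsRed. At 200 nM in PBS with 2% BSA, salmon testes DNA and 50 µM zinc acetate, the protein was incubated for 1 h at 25 °C with a custom Agilent array that had been primer-extended with Cy5-dUTP and blocked with 2% BSA. After washing, the array was read on an Axon 4000B scanner. The binding signal is per-feature fluorescence intensity in arbitrary units.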
Turning to “CCCTTTGTCCTGCAGTACGTTTTTCCTTGCATTTTTCTTTCGGAGTCACCTAGTGCAG”, the binding signal was 19700 fluorescence intensity (a.u.).

Consider “ATCACGAGGCTCCAAGCAAGCGCTCTCAGTCTCTTATAACCGGAGTCACCTAGTGCAG”, for which the binding signal is 8230 fluorescence intensity (a.u.).

In the case of “GCGCTTAACTTTGATCGTCCGTTTTATTTGAAAAATTTTTCGGAGTCACCTAGTGCAG”, the binding signal is 9160 fluorescence intensity (a.u.).

For the sequence “AAATGTTGGTGGGGAAGTTGTTATATTTTGGATAAATCCTCGGAGTCACCTAGTGCAG”, the binding signal was 12800 fluorescence intensity (a.u.).

Turning to “ATCCTATATTTGTTGCAGTTCATTCATTTCATCACCAGTTCGGAGTCACCTAGTGCAG”, the binding signal is 8840 fluorescence intensity (a.u.).

For the sequence “GAACTTAATCCATTTTTTTTTTATCTCTGACAGCATCCGACGGAGTCACCTAGTGCAG”, the binding signal was 9160 fluorescence intensity (a.u.).

On to “AATGCTTTCTTTCACTTCTTCCATTCCTCTGTCCACAAAACGGAGTCACCTAGTGCAG”, for which the binding signal is 8670 fluorescence intensity (a.u.).

In the case of “GGTCTCCGTCCAAGCAGTGATATTTTTGGGTTGGGTTTGGCGGAGTCACCTAGTGCAG”, the binding signal was 8340 fluorescence intensity (a.u.).

Consider “TCCCTTGATGCGAACAAAATGCTGTCTGTACATTTTTTCGCGGAGTCACCTAGTGCAG”, for which the binding signal is 12000 fluorescence intensity (a.u.).

On to “AATAACTTTCCAGGCAAATATATGCATGATGTTTTTGTTTCGGAGTCACCTAGTGCAG”, for which the binding signal was 8040 fluorescence intensity (a.u.).

Take “CGTTGTATTCGTTCCAGTCCCAAAACCAGCGAGATGGATGCGGAGTCACCTAGTGCAG”: the binding signal is 8570 fluorescence intensity (a.u.).

For “ATTTTATATTTTATTACTGCTCCACTCCACTCCGCATTTCCGGAGTCACCTAGTGCAG”, the binding signal was 10000 fluorescence intensity (a.u.).

On to “AATCCTGCACTATTCATTTTTCCCATATACCTTCACTTCTCGGAGTCACCTAGTGCAG”, for which the binding signal is 12000 fluorescence intensity (a.u.).

In the case of “AGGCGGGATGGTCGCGGTTGGGGTTTCCTTCGTTTCGTTGCGGAGTCACCTAGTGCAG”, the binding signal is 13900 fluorescence intensity (a.u.).

As to “GAATCATCAAACCACACCAATCGCCTCCAACATCATCACACGGAGTCACCTAGTGCAG”, the binding signal was 8430 fluorescence intensity (a.u.).

For “GGTTGTACTATGCCAATTTGAACCAGCTGTCGATTTATGTCGGAGTCACCTAGTGCAG”, the binding signal is 9220 fluorescence intensity (a.u.).

With “TTGCTCTATCAGGATATTACGGTTGTCAATTACAAAGGGGCGGAGTCACCTAGTGCAG”, the binding signal is 8790 fluorescence intensity (a.u.).

Take “CGCTGACCACGTTGACCATCTTCCATTTCTTCCCCTCGCCCGGAGTCACCTAGTGCAG”: the binding signal was 18600 fluorescence intensity (a.u.).

For the sequence “AAAATCCTTGTCTCCGTCTCTTTTATCTCAATCTCGCATACGGAGTCACCTAGTGCAG”, the binding signal is 11400 fluorescence intensity (a.u.).

For “TATATTTTATTTTAGTCATGGTCGTATCTAATTTGTCTTCCGGAGTCACCTAGTGCAG”, the binding signal is 12100 fluorescence intensity (a.u.).

For the sequence “TCTGACACTGGGCCCCACCTGCCAGTGTCTGCGGCTTCCACGGAGTCACCTAGTGCAG”, the binding signal was 8050 fluorescence intensity (a.u.).

As to “GGTGAAAGGGGTCTTTAGTTTATATGGGATAAAATGACGACGGAGTCACCTAGTGCAG”, the binding signal is 8300 fluorescence intensity (a.u.).

“TTCGTTTTGACTTTTTTCTTAGTAAAACTTTTATGTTTGACGGAGTCACCTAGTGCAG”: the binding signal was 11600 fluorescence intensity (a.u.).

As to “CTGCTTCGCCTCTCGTTCCCCAAGGCCCCGAAGCCGCCGGCGGAGTCACCTAGTGCAG”, the binding signal is 8350 fluorescence intensity (a.u.).

As for “CGGAACTAACTTTTTCACTATGGCATTTTTTTTTTCTTGTCGGAGTCACCTAGTGCAG”, the binding signal was 8700 fluorescence intensity (a.u.).

In the case of “GCGGGAGGGTAACAAGGCGGCGGCGGGTGCGCGCTCGCCTCGGAGTCACCTAGTGCAG”, the binding signal is 9310 fluorescence intensity (a.u.).

Consider “ATCAATTCTATTCTCTCTGTGACCCAGGTAATTGCTGCTGCGGAGTCACCTAGTGCAG”, for which the binding signal was 10500 fluorescence intensity (a.u.).

In the case of “CAAAACCACGGAGATAACCAGATAATCCTCGCACATCTCGCGGAGTCACCTAGTGCAG”, the binding signal is 8030 fluorescence intensity (a.u.).

Turning to “TGCAGTAGTTGATGTGTGGTGTGTGTCAGATAAATCTGATCGGAGTCACCTAGTGCAG”, the binding signal is 9260 fluorescence intensity (a.u.).

“CTCTTTATATTATTGTGCGAATTCAGTTCACCTTTACTACCGGAGTCACCTAGTGCAG”: the binding signal was 8170 fluorescence intensity (a.u.).

For the sequence “GCGGTTTCCTAGTTGACTGACCAAACAATTCATATATATTCGGAGTCACCTAGTGCAG”, the binding signal is 8740 fluorescence intensity (a.u.).

With “AGGAATTGGTGGATGCGGTGAGGGGCTACGGGGTGGAAGACGGAGTCACCTAGTGCAG”, the binding signal was 11100 fluorescence intensity (a.u.).

In the case of “GCCGACAAGAACCGCCCCTACATTGACTCGGCTTTGCCCTCGGAGTCACCTAGTGCAG”, the binding signal was 8250 fluorescence intensity (a.u.).

Regarding “GGAGTGTTTCTGTTGTTGCATGTGATGAGTGCATTATCATCGGAGTCACCTAGTGCAG”, the binding signal is 11000 fluorescence intensity (a.u.).

Take “CTTCACGCTCTCCACTCCGCTCGGTGCCCGATCTGGTTCGCGGAGTCACCTAGTGCAG”: the binding signal was 8780 fluorescence intensity (a.u.).

As to “CGCTATAATATAAGTACTGTTGGATTTTTGTTTTTCTTTTCGGAGTCACCTAGTGCAG”, the binding signal was 8100 fluorescence intensity (a.u.).

Turning to “GATATTTGTTTATATTAGAAGTTGAGATGGTTTTTGTGTTCGGAGTCACCTAGTGCAG”, the binding signal was 9180 fluorescence intensity (a.u.).

Take “CTCATCTCACCCGTCACTACTGCACTGCGCACCATTGCCGCGGAGTCACCTAGTGCAG”: the binding signal is 8540 fluorescence intensity (a.u.).

With “AGTATCGGCCTCTTCTTCTTCTGCTTCATGGATTGATCCACGGAGTCACCTAGTGCAG”, the binding signal is 9390 fluorescence intensity (a.u.).

Turning to “CTCGTTTGATCTCTCAGTTGGGAGCATTATTTCTGCGCATCGGAGTCACCTAGTGCAG”, the binding signal was 10800 fluorescence intensity (a.u.).

Regarding “GTTTCCGATCGACCAGATCCGCCCATCACACAGCATCTGTCGGAGTCACCTAGTGCAG”, the binding signal is 8440 fluorescence intensity (a.u.).

“CTGTCGTGTTTCCTCTGATTAGTTCATACAGCATCTGTTACGGAGTCACCTAGTGCAG”: the binding signal was 17600 fluorescence intensity (a.u.).
